In PMC4619598 one finds binding data, which are given here for three molecules.

No constants are given. Whether binding was seen depends on the method and setting. In cells and extracts the contact can be indirect. Here binding means that the protein was enriched with, or labelled near, the bait; the list need not be complete. Sequences can lack the tags named with a protein.

Sequences and labels used below:
T1: MET18-3FLAG-3HA (Arabidopsis thaliana) (UniProt Q0WVF8)
T1 sequence: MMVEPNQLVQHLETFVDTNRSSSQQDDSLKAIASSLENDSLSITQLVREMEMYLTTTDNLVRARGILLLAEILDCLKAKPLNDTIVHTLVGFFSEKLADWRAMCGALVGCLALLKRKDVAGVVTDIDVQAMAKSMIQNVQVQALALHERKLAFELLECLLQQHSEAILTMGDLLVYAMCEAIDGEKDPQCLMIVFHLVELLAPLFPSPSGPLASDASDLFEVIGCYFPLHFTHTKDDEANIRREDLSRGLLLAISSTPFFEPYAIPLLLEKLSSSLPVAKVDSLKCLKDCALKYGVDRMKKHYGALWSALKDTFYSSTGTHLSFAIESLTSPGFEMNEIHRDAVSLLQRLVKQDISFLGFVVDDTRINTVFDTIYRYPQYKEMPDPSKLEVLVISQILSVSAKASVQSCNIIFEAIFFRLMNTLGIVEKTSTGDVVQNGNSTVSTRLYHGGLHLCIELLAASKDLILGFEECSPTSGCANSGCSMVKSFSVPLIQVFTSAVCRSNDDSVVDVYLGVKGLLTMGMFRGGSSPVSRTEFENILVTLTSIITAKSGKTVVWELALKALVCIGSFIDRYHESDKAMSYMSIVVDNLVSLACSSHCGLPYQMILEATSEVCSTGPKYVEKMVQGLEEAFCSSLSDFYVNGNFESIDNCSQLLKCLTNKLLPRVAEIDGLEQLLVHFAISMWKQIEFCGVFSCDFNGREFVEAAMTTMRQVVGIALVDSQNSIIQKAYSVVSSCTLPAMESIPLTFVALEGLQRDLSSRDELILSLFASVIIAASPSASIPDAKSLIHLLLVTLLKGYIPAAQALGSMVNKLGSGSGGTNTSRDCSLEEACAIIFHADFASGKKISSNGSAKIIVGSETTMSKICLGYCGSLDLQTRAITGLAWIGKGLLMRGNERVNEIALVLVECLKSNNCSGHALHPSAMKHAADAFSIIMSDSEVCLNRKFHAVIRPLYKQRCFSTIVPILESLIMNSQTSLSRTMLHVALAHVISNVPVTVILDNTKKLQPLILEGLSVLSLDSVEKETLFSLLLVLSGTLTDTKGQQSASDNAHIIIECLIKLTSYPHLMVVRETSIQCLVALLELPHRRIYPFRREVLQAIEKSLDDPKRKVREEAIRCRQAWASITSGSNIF

B1: ROS1 (protein, UniProt Q9SJQ6 1-1393)
chain: MEKQRREESSFQQPPWIPQTPMKPFSPICPYTVEDQYHSSQLEERRFVGNKDMSGLDHLSFGDLLALANTASLIFSGQTPIPTRNTEVMQKGTEEVESLSSVSNNVAEQILKTPEKPKRKKHRPKVRREAKPKREPKPRAPRKSVVTDGQESKTPKRKYVRKKVEVSKDQDATPVESSAAVETSTRPKRLCRRVLDFEAENGENQTNGDIREAGEMESALQEKQLDSGNQELKDCLLSAPSTPKRKRSQGKRKGVQPKKNGSNLEEVDISMAQAAKRRQGPTCCDMNLSGIQYDEQCDYQKMHWLYSPNLQQGGMRYDAICSKVFSGQQHNYVSAFHATCYSSTSQLSANRVLTVEERREGIFQGRQESELNVLSDKIDTPIKKKTTGHARFRNLSSMNKLVEVPEHLTSGYCSKPQQNNKILVDTRVTVSKKKPTKSEKSQTKQKNLLPNLCRFPPSFTGLSPDELWKRRNSIETISELLRLLDINREHSETALVPYTMNSQIVLFGGGAGAIVPVTPVKKPRPRPKVDLDDETDRVWKLLLENINSEGVDGSDEQKAKWWEEERNVFRGRADSFIARMHLVQGDRRFTPWKGSVVDSVVGVFLTQNVSDHLSSSAFMSLASQFPVPFVPSSNFDAGTSSMPSIQITYLDSEETMSSPPDHNHSSVTLKNTQPDEEKDYVPSNETSRSSSEIAISAHESVDKTTDSKEYVDSDRKGSSVEVDKTDEKCRVLNLFPSEDSALTCQHSMVSDAPQNTERAGSSSEIDLEGEYRTSFMKLLQGVQVSLEDSNQVSPNMSPGDCSSEIKGFQSMKEPTKSSVDSSEPGCCSQQDGDVLSCQKPTLKEKGKKVLKEEKKAFDWDCLRREAQARAGIREKTRSTMDTVDWKAIRAADVKEVAETIKSRGMNHKLAERIQGFLDRLVNDHGSIDLEWLRDVPPDKAKEYLLSFNGLGLKSVECVRLLTLHHLAFPVDTNVGRIAVRLGWVPLQPLPESLQLHLLEMYPMLESIQKYLWPRLCKLDQKTLYELHYQMITFGKVFCTKSKPNCNACPMKGECRHFASAFASARLALPSTEKGMGTPDKNPLPLHLPEPFQREQGSEVVQHSEPAKKVTCCEPIIEEPASPEPETAEVSIADIEEAFFEDPEEIPTIRLNMDAFTSNLKKIMEHNKELQDGNMSSALVALTAETASLPMPKLKNISQLRTEHRVYELPDEHPLLAQLEKREPDDPCSYLLAIWTPGETADSIQPSVSTCIFQANGMLCDEETCFSCNSIKETRSQIVRGTILIPCRTAMRGSFPLNGTYFQVNEVFADHASSLNPINVPRELIWELPRRTVYFGTSVPTIFKGLSTEKIQACFWKGYVCVRGFDRKTRGPKPLIARLHFPASKLKGQQANLA
B2: CIA1 (protein, UniProt O80990 1-352)
chain: MDLMEKNLELVEIQKLEGHTDRVWSVAWNPVSSHADGVSPILASCSGDNTVRIWEQSSLSRSWTCKTVLEETHTRTVRSCAWSPSGQLLATASFDGTTGIWKNYGSEFECISTLEGHENEVKSVSWNASGSCLATCSRDKSVWIWEVLEGNEYDCAAVLTGHTQDVKMVQWHPTMDVLFSCSYDNTIKVWWSEDDDGEYQCVQTLGESNNGHSSTVWSISFNAAGDKMVTCSDDLTLKIWGTDIAKMQSGEEYAPWIHLCTLSGYHDRTIYSAHWSRDDIIASGAGDNAIRLFVDSKHDSVDGPSYNLLLKKNKAHENDVNSVQWSPGEGNRLLASASDDGMVKIWQLATKP
B3: AE7 (protein, UniProt Q9C9G6 1-157)
chain: MVSGLINENPIIYPKKERRLRTDTSITDELTPEPIDQLEIFDHIRDIKDPEHPNTLEDLRVVTEDSVEVDDENSYVRVTFTPTVEHCSMATVIGLCVRVKLLRSLPSRYKIDIRVAPGSHATEDALNKQLNDKERVAAALENPNLVEMVDECLPSEE

This assay has as its target T1, MET18-3FLAG-3HA (Arabidopsis thaliana). Briefly: affinity purification with mass spectrometry; MET18-3FLAG-3HA captured on anti-FLAG M2 agarose beads from flower tissue lysate of transgenic plants; lysis buffer 50 mM Tris pH 7.6, 150 mM NaCl, 5 mM MgCl2, 10% glycerol, 0.1% NP-40, 0.5 mM DTT; 4°C, 2-3 hours; 35S::SUC2 plants as negative control.
On to B1, for which the binding entry is “binds”.

As for B2, the binding entry is on record as “binds”.

Regarding B3, the binding result is “binds”.
